Results reported in PMC5467213, “Architecture of the RNA polymerase II-Paf1C-TFIIS transcription elongation complex” (Nature Communications, 2017).
These are yes or no findings as the source states them, for the method shown. Some results given as binding are weak or reduced against the parent protein; the word gives no strength.

Chains of the proteins cited; added tags and fusions are not shown. Lines headed by an entry give the natural chain unless they say otherwise; changes in a name come on top.
UniProt Q06697: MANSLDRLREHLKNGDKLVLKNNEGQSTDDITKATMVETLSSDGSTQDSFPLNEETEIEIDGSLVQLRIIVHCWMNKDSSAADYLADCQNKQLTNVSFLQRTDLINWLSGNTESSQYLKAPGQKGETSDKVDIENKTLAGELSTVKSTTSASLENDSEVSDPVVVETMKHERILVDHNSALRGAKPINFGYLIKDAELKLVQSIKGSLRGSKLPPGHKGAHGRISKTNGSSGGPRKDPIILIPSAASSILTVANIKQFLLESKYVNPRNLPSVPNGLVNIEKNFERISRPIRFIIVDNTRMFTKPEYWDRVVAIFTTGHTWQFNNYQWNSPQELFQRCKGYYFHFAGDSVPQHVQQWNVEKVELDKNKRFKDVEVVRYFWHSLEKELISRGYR

T1: Ctr9-ΔC913 (S. cerevisiae, UniProt P89105 1-913)
T1 construct: Ctr9, S. cerevisiae, variant lacking 164 amino acids at its C terminus (Ctr9-ΔC913); also called Ctr9 (in the Pol II-Paf1C-TFIIS EC); source: E. coli BL21 CodonPlus(DE3)RIL, coexpressed with the other subunits; in lysate and purified as part of Paf1C-Ctr9-ΔC913
T1 sequence (looked up): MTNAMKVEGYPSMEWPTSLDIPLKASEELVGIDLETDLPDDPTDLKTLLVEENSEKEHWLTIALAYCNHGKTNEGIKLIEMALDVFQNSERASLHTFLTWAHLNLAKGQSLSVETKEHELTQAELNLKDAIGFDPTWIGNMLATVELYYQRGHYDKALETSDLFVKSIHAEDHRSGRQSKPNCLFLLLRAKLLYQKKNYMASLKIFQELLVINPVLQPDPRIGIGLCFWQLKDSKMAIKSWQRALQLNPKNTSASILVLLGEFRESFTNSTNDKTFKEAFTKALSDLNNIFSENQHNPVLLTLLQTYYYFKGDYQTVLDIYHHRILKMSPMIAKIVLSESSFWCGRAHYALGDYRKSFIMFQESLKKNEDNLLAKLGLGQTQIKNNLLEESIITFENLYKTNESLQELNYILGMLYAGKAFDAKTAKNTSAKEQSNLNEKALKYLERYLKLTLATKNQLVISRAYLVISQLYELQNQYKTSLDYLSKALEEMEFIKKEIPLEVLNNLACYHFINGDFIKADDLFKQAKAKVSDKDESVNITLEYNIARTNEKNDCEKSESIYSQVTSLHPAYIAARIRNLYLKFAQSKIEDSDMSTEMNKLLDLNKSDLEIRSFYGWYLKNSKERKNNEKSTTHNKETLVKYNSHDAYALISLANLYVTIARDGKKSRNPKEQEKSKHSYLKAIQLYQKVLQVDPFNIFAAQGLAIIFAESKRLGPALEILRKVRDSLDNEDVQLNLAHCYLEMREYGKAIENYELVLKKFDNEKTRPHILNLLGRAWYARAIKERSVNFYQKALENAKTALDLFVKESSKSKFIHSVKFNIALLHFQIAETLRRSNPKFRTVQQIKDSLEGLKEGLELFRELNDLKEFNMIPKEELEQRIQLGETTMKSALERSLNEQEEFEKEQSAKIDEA


How the values were obtained:
[1] = molecular target: Paf1C core (Ctr9-ΔC913, Paf1-ΔC361, Leo1-ΔN118-ΔC376 and Cdc73) (S. cerevisiae) (UniProt P89105+P38351+P38439+Q06697); assay: co-purification after coexpression (Ni-NTA, cation exchange, SEC); subunits coexpressed in E. coli from three vectors, cells colysed; Ni-NTA (hexahistidine tag on Ctr9), HiTrap SP cation exchange, Superose 6 size exclusion; SDS-PAGE, subunits confirmed by mass spectrometry
Ctr9-ΔC913 = molecular target: T1, Ctr9-ΔC913; assay: as above

| Molecule | binding [1] | binding (Ctr9-ΔC913) |
| --- | --- | --- |
| Rtf1-ΔN441 (C-terminal region of Rtf1) (from UniProt P53064 441-558) (domain or fragment) | binds | – |
| Leo1-ΔN118-ΔC376 (domain or fragment, UniProt P38439 118-376) MYTRKFYGEDANNFSDQDETTHTFKEENVELVRHIIPSKANVNETASHNEIFYARIPNFLTIDPIPFDPPSFEAKVNERASNSASREDQLDDRLIDENTVRWRYSRDKDQHVFKESNTQIVQWSDGTYSLKVGEECTDILVNDTSNTFLTVSHDQQELIQCYEGGEIKKTLMFIPTSTNSKIHQKLSKAVIRRNQRQSKGPGTYIVSMDPEVEKKELERKQSQILRDRRRRQLKEKEKQESPDAAFETGFRKQNSPTTY | – | binds |
| Paf1-ΔC361 (domain or fragment, UniProt P38351 1-361) MSKKQEYIAPIKYQNSLPVPQLPPKLLVYPESPETNADSSQLINSLYIKTNVTNLIQQDEDLGMPVDLMKFPGLLNKLDSKLLYGFDNVKLDKDDRILLRDPRIDRLTKTDISKVTFLRRTEYVSNTIAAHDNTSLKRKRRLDDGDSDDENLDVNHIISRVEGTFNKTDKWQHPVKKGVKMVKKWDLLPDTASMDQVYFILKFMGSASLDTKEKKSLNTGIFRPVELEEDEWISMYATDHKDSAILENELEKGMDEMDDDSHEGKIYKFKRIRDYDMKQVAEKPMTELAIRLNDKDGIAYYKPLRSKIELRRRRVNDIIKPLVKEHDIDQLNVTLRNPSTKEANIRDKLRMKFDPINFATV | – | binds |
